From the supplement of paper PMC12067093, “Discovery and optimisation of a covalent ligand for TRIM25 and its application to targeted protein ubiquitination” (Chemical Science, 2025)
This is one part of the list.

Amino acid sequences for entries named in this document (tags omitted). A change or cut given only in a name is not applied to a line headed by its entry.
UniProt O00170: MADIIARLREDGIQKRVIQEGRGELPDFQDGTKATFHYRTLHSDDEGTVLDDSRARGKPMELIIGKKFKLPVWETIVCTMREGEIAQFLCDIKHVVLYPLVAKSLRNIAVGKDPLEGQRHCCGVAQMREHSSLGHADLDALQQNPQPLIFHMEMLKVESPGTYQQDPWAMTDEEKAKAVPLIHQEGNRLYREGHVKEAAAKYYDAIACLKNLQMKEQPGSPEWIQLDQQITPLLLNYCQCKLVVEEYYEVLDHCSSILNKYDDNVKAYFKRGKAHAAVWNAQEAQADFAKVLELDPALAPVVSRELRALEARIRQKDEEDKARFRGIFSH
UniProt Q9UJX5, whole entry, looked up: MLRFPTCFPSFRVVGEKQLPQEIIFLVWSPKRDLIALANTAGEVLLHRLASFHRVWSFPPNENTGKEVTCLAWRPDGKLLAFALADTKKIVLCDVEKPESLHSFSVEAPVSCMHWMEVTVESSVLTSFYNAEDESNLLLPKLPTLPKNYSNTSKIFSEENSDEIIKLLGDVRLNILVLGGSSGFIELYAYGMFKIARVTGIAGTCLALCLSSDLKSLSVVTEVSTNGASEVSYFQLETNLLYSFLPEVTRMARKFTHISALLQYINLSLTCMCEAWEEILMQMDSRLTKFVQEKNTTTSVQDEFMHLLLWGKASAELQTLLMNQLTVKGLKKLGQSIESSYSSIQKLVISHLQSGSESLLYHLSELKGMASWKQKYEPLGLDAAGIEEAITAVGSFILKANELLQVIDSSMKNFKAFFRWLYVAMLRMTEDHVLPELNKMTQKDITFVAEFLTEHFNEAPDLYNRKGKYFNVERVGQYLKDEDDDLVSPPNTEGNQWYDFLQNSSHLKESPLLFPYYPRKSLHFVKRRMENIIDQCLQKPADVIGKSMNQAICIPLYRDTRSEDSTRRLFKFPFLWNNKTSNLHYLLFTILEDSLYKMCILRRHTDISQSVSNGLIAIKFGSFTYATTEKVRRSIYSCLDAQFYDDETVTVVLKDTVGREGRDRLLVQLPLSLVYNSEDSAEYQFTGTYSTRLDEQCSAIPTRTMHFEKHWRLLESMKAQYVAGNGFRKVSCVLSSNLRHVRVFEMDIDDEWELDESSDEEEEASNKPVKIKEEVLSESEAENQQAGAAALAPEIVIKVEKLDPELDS
UniProt P49189: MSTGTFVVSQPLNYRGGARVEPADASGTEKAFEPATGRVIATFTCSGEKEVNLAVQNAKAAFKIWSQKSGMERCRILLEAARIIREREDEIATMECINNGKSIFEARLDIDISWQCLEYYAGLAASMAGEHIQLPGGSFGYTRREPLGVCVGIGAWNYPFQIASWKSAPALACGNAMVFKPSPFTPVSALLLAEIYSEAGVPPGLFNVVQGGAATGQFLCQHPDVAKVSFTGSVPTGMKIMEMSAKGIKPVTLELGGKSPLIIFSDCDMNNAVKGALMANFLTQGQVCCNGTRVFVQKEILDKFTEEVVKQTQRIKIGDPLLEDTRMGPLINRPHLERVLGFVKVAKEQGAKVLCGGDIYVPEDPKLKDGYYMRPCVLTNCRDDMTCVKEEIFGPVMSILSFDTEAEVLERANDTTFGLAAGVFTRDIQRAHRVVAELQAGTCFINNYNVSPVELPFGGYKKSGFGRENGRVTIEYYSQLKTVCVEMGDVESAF
UniProt P02760: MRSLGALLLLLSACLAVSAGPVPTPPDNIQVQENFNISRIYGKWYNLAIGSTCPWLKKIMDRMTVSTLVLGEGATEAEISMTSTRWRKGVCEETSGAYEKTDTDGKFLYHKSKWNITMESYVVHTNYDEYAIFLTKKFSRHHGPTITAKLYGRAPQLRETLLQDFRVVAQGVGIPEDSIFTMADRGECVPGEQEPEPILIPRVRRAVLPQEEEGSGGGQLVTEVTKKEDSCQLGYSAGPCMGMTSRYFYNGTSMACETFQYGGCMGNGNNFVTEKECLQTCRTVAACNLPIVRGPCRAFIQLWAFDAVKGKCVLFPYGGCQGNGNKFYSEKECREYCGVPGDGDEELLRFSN
UniProt P04075: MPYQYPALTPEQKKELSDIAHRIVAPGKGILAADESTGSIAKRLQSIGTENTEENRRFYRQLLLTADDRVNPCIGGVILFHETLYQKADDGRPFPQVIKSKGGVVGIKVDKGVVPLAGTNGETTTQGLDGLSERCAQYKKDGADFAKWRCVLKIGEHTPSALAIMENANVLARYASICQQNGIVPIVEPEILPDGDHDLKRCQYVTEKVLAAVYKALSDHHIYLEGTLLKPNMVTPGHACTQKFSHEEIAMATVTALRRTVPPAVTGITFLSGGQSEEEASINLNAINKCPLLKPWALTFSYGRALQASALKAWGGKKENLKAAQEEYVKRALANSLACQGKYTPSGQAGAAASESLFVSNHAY
UniProt Q99996, whole entry, looked up: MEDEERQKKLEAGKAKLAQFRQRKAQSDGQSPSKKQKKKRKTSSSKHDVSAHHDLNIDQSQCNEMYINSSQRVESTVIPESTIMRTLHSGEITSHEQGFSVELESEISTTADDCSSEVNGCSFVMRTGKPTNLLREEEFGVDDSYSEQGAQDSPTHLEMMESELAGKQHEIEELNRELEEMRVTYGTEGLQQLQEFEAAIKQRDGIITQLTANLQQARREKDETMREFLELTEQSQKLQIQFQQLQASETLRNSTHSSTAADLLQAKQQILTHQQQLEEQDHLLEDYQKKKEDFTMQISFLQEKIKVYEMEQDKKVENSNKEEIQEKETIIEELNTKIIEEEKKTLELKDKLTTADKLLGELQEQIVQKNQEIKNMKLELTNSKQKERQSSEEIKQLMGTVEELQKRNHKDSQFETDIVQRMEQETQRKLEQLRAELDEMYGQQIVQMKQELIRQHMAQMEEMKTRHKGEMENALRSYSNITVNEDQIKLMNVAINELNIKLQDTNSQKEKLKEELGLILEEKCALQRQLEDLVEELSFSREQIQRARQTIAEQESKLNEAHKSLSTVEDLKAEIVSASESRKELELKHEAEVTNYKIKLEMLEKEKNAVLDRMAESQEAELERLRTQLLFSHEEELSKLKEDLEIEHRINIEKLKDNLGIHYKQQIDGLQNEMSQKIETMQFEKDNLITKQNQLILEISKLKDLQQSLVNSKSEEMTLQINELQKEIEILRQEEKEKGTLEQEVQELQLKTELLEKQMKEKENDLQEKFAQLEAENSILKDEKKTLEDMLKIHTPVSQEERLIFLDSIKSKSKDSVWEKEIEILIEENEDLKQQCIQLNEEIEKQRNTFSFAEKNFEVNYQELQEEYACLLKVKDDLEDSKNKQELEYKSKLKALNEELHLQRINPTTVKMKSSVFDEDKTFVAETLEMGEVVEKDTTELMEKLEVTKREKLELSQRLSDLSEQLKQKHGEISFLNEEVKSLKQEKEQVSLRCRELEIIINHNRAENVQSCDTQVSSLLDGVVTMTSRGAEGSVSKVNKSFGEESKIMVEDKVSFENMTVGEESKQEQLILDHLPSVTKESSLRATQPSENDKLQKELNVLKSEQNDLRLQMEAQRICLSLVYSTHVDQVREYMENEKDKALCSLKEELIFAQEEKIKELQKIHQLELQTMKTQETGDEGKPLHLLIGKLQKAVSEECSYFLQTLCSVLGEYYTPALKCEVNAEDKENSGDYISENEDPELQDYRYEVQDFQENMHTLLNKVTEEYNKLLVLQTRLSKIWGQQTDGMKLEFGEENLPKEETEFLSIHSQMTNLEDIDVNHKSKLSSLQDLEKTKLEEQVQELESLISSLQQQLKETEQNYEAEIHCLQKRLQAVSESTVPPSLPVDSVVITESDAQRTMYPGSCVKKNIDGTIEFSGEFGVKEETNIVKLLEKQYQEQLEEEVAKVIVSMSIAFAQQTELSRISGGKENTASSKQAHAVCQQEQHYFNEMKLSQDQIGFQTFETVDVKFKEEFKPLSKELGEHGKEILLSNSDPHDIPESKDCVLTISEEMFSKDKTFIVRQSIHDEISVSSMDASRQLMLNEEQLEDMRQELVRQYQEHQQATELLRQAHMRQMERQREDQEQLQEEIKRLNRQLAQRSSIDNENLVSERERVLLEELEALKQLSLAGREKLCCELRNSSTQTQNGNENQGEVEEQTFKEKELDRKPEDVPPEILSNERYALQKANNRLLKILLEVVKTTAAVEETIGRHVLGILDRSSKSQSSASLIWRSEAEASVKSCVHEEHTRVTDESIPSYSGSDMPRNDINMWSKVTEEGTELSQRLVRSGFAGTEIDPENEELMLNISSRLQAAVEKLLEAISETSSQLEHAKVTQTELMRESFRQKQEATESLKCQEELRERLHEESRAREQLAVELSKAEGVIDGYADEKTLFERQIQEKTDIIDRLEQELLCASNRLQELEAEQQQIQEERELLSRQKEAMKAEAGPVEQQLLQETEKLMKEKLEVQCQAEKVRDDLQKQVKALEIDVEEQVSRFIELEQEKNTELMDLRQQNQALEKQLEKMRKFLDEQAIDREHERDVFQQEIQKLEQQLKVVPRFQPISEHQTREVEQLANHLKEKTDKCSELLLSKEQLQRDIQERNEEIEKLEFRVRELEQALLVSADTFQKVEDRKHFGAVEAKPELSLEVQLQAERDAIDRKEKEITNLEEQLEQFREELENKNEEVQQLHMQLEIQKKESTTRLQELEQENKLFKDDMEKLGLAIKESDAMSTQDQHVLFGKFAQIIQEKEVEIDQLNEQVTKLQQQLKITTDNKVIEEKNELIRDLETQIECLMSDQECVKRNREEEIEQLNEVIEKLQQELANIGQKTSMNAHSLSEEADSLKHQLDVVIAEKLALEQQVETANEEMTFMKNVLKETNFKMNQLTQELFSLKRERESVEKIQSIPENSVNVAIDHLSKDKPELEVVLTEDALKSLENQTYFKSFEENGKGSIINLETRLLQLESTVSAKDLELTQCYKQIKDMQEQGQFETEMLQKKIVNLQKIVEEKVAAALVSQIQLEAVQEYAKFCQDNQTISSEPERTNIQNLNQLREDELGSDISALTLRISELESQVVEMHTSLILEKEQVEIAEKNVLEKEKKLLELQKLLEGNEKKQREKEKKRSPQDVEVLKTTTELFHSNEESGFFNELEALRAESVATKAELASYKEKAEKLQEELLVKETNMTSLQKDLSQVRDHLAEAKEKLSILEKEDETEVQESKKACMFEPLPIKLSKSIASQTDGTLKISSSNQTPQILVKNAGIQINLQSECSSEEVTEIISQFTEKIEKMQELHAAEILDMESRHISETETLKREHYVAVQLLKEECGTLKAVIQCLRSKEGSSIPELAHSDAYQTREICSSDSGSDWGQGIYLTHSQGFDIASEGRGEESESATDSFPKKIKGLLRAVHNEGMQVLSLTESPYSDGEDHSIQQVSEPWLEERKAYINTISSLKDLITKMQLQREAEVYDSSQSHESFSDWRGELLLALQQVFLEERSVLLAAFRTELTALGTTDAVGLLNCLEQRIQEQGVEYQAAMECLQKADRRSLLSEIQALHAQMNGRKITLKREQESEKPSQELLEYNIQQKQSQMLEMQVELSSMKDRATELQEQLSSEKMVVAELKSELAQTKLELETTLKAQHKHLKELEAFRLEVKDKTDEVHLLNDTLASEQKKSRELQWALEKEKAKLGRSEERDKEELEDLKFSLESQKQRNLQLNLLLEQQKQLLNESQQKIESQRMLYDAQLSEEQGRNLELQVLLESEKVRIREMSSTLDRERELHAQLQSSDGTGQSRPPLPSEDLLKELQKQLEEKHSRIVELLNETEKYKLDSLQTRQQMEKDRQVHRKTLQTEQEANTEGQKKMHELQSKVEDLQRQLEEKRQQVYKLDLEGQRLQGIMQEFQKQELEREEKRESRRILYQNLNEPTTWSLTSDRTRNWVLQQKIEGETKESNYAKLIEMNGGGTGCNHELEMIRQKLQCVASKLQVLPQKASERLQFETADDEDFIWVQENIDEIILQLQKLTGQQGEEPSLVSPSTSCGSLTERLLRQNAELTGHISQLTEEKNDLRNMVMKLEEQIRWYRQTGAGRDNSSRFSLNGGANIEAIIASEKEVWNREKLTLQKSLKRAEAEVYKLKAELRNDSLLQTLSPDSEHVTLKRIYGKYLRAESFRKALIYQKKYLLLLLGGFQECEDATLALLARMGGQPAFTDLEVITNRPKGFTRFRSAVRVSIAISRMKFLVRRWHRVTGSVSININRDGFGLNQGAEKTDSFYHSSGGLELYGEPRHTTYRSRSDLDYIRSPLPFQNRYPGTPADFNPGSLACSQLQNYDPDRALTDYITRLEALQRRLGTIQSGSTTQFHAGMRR
UniProt P13716: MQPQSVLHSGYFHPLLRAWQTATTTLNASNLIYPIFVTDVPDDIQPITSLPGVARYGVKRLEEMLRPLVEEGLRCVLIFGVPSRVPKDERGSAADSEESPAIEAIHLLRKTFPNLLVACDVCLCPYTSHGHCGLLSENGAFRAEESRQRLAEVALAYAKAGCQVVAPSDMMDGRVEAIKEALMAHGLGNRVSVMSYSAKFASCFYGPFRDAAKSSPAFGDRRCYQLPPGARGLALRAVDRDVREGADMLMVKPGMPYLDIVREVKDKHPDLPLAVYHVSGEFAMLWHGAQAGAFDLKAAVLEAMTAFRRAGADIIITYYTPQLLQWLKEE

Compound: Cc1cc(ccc1-c1ccccc1)C(=O)N1CCCN(CC1)C(=O)CCl [compound 10]
Test: probe-labelled cysteine peptide fold change vs DMSO (competition) (log2 fold change); higher = less target engagement (more negative = stronger competition)
Details: THP-1, incubation time: 4 h
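Further: competitive profiling in live THP-1 cells: cysteine peptides tagged with an iodoacetamide desthiobiotin (IA-DTB) probe, intensity after compound treatment relative to DMSO-treated cells.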

| Target | probe-labelled cysteine peptide fold change (10 µM) | probe-labelled cysteine peptide fold change (50 µM) |
| --- | --- | --- |
| AKR1B1_P15121_45_HIDCAHVYQNENEVGVAIQEK (UniProt P15121) | 0.0652 | -0.0317 |
| AMACR_Q9UHK6_284_AEWCQIFDGTDACVTPVLTFEEVVHHDHNK (UniProt Q9UHK6) | -0.165 | -0.0779 |
| ANK2_Q01484_375_APVDDVTLDYLTALHVAAHCGHYR (UniProt Q01484) | -0.0423 | -0.271 |
| ALDH18A1_P54886_584_GIPVMGHSEGICHMYVDSEASVDK (UniProt P54886) | -0.172 | -0.241 |
| ALDH6A1_Q02252_249_LLQDSGAPDGTLNIIHGQHEAVNFICDHPDIK (UniProt Q02252) | 0.0524 | -0.0688 |
| AIMP1_Q12904_211_MVILLCNLKPAK (UniProt Q12904) | -0.23 | -0.422 |
| AIP_O00170_122_HCCGVAQMR (UniProt O00170) | -0.267 | -2.09 |
| ANK3_Q12955_4233_LDDSPDQCR (UniProt Q12955) | 0.0929 | 0.374 |
| AKAP8_O43823_392+395_IQFACSVCK (UniProt O43823) | 0.155 | -0.372 |
| ANAPC4_Q9UJX5_732_VSCVLSSNLR (UniProt Q9UJX5) | 0.202 | 0.0475 |
| ALG2_Q9H553_70_CAGDWLPR (UniProt Q9H553) | -0.126 | 0.0183 |
| ALDH9A1_P49189_288+289_GALMANFLTQGQVCCNGTR (UniProt P49189) | 0.182 | 0.0492 |
| AMBP_P02760_277+281_ECLQTCR (UniProt P02760) | -0.644 | -0.975 |
| ALDOA_P04075_202_RCQYVTEK (UniProt P04075) | 0.204 | 0.193 |
| ANAPC11_Q9NYG5_73_WLHAQQVQQHCPMCR (UniProt Q9NYG5) | -0.0741 | -0.108 |
| ALDH6A1_Q02252_149_GLQVVEHACSVTSLMMGETMPSITK (UniProt Q02252) | -0.0217 | -0.112 |
| AKAP9_Q99996_1367_ETEQNYEAEIHCLQK (UniProt Q99996) | -0.169 | -0.14 |
| AMPD2_Q01433_230_CGVPFTDLLDAAK (UniProt Q01433) | -0.00293 | -0.258 |
| AKR7A2_O43488_132_LQCPQVDLFYLHAPDHGTPVEETLHACQR (UniProt O43488) | -0.093 | 0.725 |

| Target | probe-labelled cysteine peptide fold change (10 µM) | probe-labelled cysteine peptide fold change (50 µM) |
| --- | --- | --- |
| AGPAT5_Q9NUQ2_217_ATHVAFDCMK (UniProt Q9NUQ2) | -0.142 | 0.157 |
| ALAD_P13716_75_CVLIFGVPSR (UniProt P13716) | 0.166 | 0.185 |
| ALDH9A1_P49189_45_VIATFTCSGEK (UniProt P49189) | -0.00832 | 0.0216 |
| ALG1_Q9BT22_317_FEQLTLDGHNLPSLVCVITGK (UniProt Q9BT22) | 0.246 | 0.277 |
| ALAS1_P13196_124_GSSVFCK (UniProt P13196) | 0.407 | 0.365 |
| ALCAM_Q13740_435_TIICHVEGFPK (UniProt Q13740) | -0.0565 | 0.0183 |
| AKR1B1_P15121_304_VCALLSCTSHK (UniProt P15121) | -0.547 | -2.08 |
| ANAPC1_Q9H1A4_988_QACEGNLPK (UniProt Q9H1A4) | -0.212 | -0.324 |
| ANKHD1_Q8IWZ3_1308_FCELLIHR (UniProt Q8IWZ3) | 0.116 | -0.00815 |
| ANAPC5_Q9UJX4_670_CQVASAASYDQPK (UniProt Q9UJX4) | 0.0716 | -0.00822 |
| ALKBH1_Q13686_371_DISTEGFCHLDDQNSEVKR (UniProt Q13686) | -0.349 | -0.464 |
| AHCYL1_O43865_293_QKFDNLYCCR (UniProt O43865) | -0.0835 | -0.419 |
| ANAPC7_Q9UJX3_259_AISTICSLEK (UniProt Q9UJX3) | -0.0861 | -0.74 |
| ANAPC4_Q9UJX5_697_LDEQCSAIPTR (UniProt Q9UJX5) | -0.0466 | 0.113 |
| ANKFY1_Q9P2R3_34_RCALLAAQANK (UniProt Q9P2R3) | 0.0962 | 0.224 |
| AMBP_P02760_281_ECLQTCR (UniProt P02760) | -0.538 | -0.671 |
| AKAP1_Q92667_147_SIPLECPLSSPK (UniProt Q92667) | -0.399 | -0.569 |
| AKAP9_Q99996_3063_TELTALGTTDAVGLLNCLEQR (UniProt Q99996) | -0.176 | -0.488 |
